# According to US8637664B2, “Alkyl 4- [4- (5-oxo-2,3,5, 11a-tetrahydo-5H-pyrrolo [2, 1-c] [1,4] benzodiazepine-8-yloxy)-butyrylamino]-1H-pyrrole-2-carboxylate derivatives and related compounds for the treatment of a proliferative disease” (Spirogen SARL, priority 2005, dated 2014):
# Some entries repeat one wording, which the source may state once for all of them.
# System: MCF-7 human mammary cells
# Test: Cellular uptake and nuclear incorporation by confocal microscopy
# Format: cell-based
# Settings: for time at which cellular uptake is detectable: MCF-7, confocal microscopy; for localisation of fluorescence in the cell: MCF-7, highest drug concentrations, 24 hour exposure
SMILES,time at which cellular uptake is detectable [h],localisation of fluorescence in the cell
"COC(=O)c1cc(NC(=O)c2cc(NC(=O)CCCOc3cc4c(cc3OC)C(=O)N3CCC[C@H]3C=N4)cn2C)cn1C [Compound 23, (11aS) Methyl 4-({4-[4-(7-Methoxy-6-oxo-2,3,5,11a-tetrahydro-5H-pyrrolo[2,1-c][1,4]benzodiazepine-8-yloxy)-butyrylamino]-1-methyl-1H-pyrrole-2-carbonyl}-amino)-1-methyl-1H-pyrrole-2-carboxylate]",3,strong nuclear fluorescence
"COC(=O)c1cc(NC(=O)c2cc(NC(=O)c3cc(NC(=O)CCCOc4cc5c(cc4OC)C(=O)N4CCC[C@H]4C=N5)cn3C)cn2C)cn1C [Compound 25, (11aS) Methyl 4-{[4-({4-[4-(7-Methoxy-6-oxo-2,3,5,11a-tetrahydro-5H-pyrrolo[2,1-c][1,4]benzodiazepine-8-yloxy)-butyrylamino]-1-methyl-1H-pyrrole-2-carbonyl]-amino)-1-methyl-1H-pyrrole-2-carbonyl]-amino}-1-methyl-1H-pyrrole-2-carboxylate]",3,strong nuclear fluorescence
"COC(=O)c1cc(NC(=O)CCCOc2cc3c(cc2OC)C(=O)N2CCC[C@H]2C=N3)cn1C [Compound 21, (11aS) Methyl 4-[4-(7-methoxy-5-oxo-2,3,5,11a-tetrahydro-5H-pyrrolo[2,1-c][1,4]benzodiazepine-8-yloxy)-butyrylamino]-1-methyl-1H-pyrrole-2-carboxylate]",< 1,strong nuclear fluorescence
